The other results are listed elsewhere or left out.
compound: c1cn2cc(-c3ccc4cn[nH]c4c3)nc(Nc3ccc(N4CCOCC4)cc3)c2n1 [entospletinib]; assay: log2 fold change, soluble protein after heating vs DMSO (PISA); higher = thermal stabilisation; K562 cells, 10 uM, 30 min; active = over 0.2 and 3.5 SD of the protein, either way, in both replicates (recomputed)
Outline: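 K562 cells at 2×10^6 cells/mL were treated for 30 min with 10 μM compound, and aliquots were heated for 3 min over 48°C-58°C before pooling. Extraction used PBS with 0.5% NP-40 at 4°C, and soluble protein was the supernatant after 21,000xg for 90 min, measured by TMTpro 16plex LC-MS/MS with channel sums equalised. Thermal stability values, relative to control samples and from duplicates, are log2 fold changes.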

Chains of the proteins cited; added tags and fusions are not shown. Lines headed by an entry give the natural chain unless they say otherwise; changes in a name come on top.
UniProt P06132: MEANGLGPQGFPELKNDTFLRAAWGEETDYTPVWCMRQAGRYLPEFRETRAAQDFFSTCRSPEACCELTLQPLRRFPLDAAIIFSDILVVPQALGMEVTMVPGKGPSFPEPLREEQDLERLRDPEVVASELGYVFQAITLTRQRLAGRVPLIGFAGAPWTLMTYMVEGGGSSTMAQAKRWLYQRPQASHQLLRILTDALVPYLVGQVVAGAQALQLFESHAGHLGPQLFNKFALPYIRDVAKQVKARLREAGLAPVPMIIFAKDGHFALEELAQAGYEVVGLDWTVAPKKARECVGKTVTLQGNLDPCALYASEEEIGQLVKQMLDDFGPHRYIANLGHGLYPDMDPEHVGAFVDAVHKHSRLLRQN
UniProt O14562: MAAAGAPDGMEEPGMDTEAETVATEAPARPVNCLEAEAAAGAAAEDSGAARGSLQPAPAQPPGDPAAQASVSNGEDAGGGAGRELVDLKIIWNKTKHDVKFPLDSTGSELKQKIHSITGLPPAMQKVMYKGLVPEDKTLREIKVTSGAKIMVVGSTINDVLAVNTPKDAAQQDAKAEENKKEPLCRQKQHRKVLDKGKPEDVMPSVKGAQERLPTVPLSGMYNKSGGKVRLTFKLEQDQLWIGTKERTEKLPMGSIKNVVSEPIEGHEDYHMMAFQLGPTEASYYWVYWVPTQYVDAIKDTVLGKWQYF
UniProt Q68DE3: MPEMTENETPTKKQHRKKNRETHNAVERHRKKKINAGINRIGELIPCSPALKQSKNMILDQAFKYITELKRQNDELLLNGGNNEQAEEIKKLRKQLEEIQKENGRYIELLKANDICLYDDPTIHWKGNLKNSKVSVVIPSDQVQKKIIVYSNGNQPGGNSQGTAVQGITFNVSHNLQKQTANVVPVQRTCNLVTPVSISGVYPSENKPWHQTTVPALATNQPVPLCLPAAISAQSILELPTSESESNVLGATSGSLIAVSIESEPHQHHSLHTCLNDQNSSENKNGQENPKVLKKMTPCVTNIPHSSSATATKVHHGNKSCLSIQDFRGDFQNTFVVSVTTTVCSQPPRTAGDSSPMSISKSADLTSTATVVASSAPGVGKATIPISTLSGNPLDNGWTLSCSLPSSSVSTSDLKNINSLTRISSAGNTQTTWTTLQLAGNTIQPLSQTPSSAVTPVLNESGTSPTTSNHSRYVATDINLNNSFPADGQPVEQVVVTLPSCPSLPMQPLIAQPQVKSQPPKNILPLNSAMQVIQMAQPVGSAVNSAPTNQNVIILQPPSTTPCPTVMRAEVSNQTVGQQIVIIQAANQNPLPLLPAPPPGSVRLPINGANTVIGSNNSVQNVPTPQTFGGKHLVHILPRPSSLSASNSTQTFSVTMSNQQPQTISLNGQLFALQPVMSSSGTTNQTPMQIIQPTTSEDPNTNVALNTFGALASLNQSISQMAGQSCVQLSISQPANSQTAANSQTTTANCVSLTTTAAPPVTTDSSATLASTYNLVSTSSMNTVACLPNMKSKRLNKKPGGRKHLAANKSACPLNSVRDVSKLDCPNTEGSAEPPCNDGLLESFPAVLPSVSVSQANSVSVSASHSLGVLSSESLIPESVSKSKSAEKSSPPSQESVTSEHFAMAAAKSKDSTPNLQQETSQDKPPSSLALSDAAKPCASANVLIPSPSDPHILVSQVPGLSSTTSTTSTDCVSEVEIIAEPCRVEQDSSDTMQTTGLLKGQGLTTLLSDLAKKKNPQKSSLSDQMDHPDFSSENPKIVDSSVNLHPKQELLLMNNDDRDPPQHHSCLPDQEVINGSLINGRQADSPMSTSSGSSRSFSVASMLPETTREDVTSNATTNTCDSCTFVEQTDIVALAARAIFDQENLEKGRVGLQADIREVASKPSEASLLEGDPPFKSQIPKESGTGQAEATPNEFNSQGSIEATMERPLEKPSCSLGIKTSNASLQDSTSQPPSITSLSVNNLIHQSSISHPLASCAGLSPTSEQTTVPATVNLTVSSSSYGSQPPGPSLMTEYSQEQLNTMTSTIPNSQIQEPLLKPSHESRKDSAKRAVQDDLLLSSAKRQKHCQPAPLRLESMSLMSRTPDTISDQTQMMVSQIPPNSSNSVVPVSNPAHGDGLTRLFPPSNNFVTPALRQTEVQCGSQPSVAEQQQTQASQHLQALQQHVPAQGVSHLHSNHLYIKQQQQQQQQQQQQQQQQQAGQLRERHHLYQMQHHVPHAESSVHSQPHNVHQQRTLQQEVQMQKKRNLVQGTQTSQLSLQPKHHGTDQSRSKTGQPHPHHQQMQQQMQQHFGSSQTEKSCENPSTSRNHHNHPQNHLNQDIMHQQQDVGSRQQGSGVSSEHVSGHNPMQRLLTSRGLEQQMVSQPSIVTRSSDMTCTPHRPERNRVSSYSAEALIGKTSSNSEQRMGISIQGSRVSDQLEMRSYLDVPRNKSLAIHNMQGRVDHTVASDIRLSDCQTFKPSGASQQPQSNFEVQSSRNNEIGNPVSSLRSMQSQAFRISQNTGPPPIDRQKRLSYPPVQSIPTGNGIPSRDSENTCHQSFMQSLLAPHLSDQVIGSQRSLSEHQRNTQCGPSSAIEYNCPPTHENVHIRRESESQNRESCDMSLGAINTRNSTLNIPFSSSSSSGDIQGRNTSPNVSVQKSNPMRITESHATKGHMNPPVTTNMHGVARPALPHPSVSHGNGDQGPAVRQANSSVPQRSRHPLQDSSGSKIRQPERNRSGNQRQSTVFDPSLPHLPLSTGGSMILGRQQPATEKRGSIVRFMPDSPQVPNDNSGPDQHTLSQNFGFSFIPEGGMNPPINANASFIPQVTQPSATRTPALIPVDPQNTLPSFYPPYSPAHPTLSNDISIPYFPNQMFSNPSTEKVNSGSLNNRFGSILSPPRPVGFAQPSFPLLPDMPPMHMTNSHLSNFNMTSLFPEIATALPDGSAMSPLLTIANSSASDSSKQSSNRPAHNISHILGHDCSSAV
UniProt O94763, whole entry, looked up: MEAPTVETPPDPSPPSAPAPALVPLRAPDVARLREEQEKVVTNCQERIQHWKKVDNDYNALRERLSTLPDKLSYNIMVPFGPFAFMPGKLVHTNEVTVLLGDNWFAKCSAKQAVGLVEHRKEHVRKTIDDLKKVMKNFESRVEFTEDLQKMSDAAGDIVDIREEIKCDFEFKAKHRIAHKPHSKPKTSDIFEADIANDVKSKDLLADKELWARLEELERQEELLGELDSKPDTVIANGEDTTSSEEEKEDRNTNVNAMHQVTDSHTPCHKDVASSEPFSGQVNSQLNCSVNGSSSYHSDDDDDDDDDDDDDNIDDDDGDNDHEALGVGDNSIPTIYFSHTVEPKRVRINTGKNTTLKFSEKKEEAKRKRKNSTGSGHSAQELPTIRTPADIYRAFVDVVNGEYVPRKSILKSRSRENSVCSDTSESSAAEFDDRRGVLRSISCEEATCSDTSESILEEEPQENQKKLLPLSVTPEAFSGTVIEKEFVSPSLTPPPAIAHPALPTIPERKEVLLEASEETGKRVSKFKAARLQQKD
UniProt P47985: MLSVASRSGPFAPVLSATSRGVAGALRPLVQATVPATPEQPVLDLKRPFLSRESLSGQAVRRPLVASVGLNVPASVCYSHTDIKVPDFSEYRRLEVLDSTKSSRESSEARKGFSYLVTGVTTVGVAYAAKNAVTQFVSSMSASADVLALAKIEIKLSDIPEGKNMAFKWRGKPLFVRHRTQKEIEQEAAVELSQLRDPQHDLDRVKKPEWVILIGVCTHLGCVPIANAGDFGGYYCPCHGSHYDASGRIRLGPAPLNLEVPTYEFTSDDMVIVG
UniProt Q15853: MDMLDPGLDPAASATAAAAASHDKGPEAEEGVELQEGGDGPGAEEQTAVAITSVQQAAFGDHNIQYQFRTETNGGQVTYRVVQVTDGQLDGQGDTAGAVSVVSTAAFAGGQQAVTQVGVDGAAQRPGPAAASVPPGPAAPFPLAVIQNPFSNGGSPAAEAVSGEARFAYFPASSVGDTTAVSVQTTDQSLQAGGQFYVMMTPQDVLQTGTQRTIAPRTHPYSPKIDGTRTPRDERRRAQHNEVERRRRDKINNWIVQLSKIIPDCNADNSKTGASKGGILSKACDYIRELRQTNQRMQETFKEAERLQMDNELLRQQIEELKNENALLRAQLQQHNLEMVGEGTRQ
UniProt Q96K76: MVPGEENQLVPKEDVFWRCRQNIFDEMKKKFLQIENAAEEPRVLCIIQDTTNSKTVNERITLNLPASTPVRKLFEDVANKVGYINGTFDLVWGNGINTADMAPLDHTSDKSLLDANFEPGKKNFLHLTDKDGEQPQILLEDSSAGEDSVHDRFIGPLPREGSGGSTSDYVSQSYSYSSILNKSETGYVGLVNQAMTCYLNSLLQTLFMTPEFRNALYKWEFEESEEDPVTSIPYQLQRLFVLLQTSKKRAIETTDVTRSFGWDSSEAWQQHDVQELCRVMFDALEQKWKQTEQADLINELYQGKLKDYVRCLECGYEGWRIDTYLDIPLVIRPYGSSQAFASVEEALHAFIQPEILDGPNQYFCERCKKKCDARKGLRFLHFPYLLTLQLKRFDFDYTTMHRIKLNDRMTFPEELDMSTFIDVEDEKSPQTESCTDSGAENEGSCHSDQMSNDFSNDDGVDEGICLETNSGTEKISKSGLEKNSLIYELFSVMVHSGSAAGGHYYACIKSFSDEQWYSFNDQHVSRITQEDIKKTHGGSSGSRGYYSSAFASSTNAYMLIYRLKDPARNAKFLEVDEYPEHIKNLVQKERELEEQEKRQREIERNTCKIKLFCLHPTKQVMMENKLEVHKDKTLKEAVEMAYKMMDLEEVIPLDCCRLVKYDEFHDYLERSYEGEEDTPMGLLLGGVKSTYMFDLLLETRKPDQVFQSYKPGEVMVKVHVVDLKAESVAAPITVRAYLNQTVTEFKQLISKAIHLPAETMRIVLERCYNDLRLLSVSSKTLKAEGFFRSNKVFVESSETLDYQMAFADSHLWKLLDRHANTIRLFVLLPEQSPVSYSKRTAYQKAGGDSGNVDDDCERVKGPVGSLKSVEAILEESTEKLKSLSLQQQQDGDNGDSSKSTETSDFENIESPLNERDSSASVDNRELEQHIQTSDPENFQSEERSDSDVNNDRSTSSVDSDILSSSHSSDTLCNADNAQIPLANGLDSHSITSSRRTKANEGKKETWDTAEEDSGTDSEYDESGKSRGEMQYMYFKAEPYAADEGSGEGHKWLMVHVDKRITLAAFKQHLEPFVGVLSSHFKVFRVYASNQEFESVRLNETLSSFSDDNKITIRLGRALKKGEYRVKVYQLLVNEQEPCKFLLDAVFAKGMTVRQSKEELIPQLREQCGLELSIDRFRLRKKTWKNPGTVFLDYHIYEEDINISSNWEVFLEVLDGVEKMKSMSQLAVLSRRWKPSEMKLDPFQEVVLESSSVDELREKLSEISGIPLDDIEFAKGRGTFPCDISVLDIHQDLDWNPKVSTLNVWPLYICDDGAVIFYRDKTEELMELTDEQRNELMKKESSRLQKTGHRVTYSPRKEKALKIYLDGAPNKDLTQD
UniProt Q9BZX2: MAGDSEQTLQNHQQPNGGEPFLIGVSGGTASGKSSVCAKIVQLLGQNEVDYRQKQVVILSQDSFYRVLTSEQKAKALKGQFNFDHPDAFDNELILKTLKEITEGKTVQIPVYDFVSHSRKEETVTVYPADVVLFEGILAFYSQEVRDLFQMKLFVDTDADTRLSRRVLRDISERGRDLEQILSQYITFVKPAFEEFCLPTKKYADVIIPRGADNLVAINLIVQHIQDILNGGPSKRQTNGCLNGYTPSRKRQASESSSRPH
UniProt Q9C0B0: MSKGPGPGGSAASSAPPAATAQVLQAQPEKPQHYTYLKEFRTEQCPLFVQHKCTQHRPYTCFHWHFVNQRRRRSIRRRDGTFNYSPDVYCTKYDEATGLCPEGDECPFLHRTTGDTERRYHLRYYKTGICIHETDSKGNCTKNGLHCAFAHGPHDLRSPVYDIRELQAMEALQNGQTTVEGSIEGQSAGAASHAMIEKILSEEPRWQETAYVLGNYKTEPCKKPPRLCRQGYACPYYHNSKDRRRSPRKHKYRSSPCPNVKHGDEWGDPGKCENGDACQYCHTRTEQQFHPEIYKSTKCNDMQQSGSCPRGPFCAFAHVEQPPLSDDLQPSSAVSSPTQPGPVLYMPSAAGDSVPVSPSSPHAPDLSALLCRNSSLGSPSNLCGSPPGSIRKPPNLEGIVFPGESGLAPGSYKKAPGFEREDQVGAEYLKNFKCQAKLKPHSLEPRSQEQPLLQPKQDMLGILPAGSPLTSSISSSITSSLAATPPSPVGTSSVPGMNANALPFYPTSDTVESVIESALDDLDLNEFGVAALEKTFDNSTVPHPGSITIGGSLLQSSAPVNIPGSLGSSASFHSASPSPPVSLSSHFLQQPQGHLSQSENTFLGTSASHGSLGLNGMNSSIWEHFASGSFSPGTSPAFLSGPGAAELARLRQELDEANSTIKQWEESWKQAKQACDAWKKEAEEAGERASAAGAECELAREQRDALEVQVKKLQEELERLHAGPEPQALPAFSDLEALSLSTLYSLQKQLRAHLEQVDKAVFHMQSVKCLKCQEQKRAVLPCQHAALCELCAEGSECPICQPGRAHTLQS

log2 fold change, inactive:
VAPA (UniProt Q9P0L0) -0.148
UMPS (UniProt P11172) 0.005
UROD (UniProt P06132) 0.02
USP8 (UniProt P40818) 0.03
UBFD1 (UniProt O14562) -0.02
USF3 (UniProt Q68DE3) 0.188
URI1 (UniProt O94763) 0.013
UQCRFS1 (UniProt P47985) -0.029
UBE3C (UniProt Q15386) 0.02
VAMP2 (UniProt P63027) -0.098
UBXN4 (UniProt Q92575) 0.018
UPF3A (UniProt Q9H1J1) 0.119
UNC93B1 (UniProt Q9H1C4) 0.084
USF2 (UniProt Q15853) 0.032
UIMC1 (UniProt Q96RL1) 0.078
UQCRC2 (UniProt P22695) -0.015
USP22 (UniProt Q9UPT9) 0.015
UQCRC1 (UniProt P31930) -0.012
UCK1 (UniProt Q9HA47) -0.099
ULBP2 (UniProt Q9BZM5) -0.013
USP47 (UniProt Q96K76) 0.068
UBR4 isoform 2 (UniProt Q5T4S7) 0.049
UCK2 (UniProt Q9BZX2) -0.039
UNK (UniProt Q9C0B0) 0.028

For reference, part of the list above.
log2 fold change, inactive:
UBFD1 (UniProt O14562) -0.02
USF3 (UniProt Q68DE3) 0.188
URI1 (UniProt O94763) 0.013
UQCRFS1 (UniProt P47985) -0.029
UBE3C (UniProt Q15386) 0.02
VAMP2 (UniProt P63027) -0.098

From the supplement of paper PMC10849652
